These are yes or no findings as the source states them, for the method shown. Some entries that bind do so weakly or less than the wild type. Sequences can lack the tags named with a protein.

Test [1] concerns the target T1, PSEUDO-RESPONSE REGULATOR 5 (PRR5), yeast two-hybrid fusion (Arabidopsis thaliana) (UniProt Q6LA42).
T1 sequence: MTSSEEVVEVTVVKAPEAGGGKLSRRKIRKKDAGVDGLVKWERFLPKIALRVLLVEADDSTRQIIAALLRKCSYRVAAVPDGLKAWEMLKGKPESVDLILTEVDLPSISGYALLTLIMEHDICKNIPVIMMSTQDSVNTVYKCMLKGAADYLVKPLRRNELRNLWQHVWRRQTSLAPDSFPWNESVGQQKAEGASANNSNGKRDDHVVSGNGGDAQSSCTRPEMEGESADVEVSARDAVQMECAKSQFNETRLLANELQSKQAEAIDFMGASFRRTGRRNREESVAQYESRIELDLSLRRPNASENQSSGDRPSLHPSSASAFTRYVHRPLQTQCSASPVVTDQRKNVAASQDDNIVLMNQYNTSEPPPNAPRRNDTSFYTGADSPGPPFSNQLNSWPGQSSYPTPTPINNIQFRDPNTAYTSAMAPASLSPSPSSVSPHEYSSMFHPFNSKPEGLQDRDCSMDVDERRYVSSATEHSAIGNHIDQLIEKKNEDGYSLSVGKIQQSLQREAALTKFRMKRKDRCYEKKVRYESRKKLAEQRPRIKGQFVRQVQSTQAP
The test is described as follows: two-hybrid; pGADT7 and pGBKT7 constructs co-transformed into yeast AH109; growth on -LT and on -LTH with various concentrations of 3-AT.

The target of test [2] is T2, PRR5 truncation containing the CCT domain (Arabidopsis thaliana) (UniProt Q6LA42).
T2 sequence: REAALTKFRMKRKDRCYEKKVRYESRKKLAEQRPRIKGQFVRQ
The test is described as above.

B1: BBX19, yeast two-hybrid fusion (protein, UniProt C0SVM5 1-183)
chain: MRILCDACENAAAIIFCAADEAALCRPCDEKVHMCNKLASRHVRVGLAEPSNAPCCDICENAPAFFYCEIDGSSLCLQCDMVVHVGGKRTHGRFLLLRQRIEFPGDKPKENNTRDNLQNQRVSTNGNGEANGKIDDEMIDLNANPQRVHEPSSNNNGIDVNNENNHEPAGLVPVGPFKRESEK
With B1, in test [1], the binding entry is listed as “binds”.

B2: B-BOX 18 (BBX18), yeast two-hybrid fusion (protein, UniProt Q9SJU5 1-172)
chain: MRILCDACESAAAIVFCAADEAALCCSCDEKVHKCNKLASRHLRVGLADPSNAPSCDICENAPAFFYCEIDGSSLCLQCDMVVHVGGKRTHRRFLLLRQRIEFPGDKPNHADQLGLRCQKASSGRGQESNGNGDHDHNMIDLNSNPQRVHEPGSHNQEEGIDVNNANNHEHE
Take B2: the binding entry in test [1] was “binds”; in test [2] it was “no binding”.

Source of the values: article PMC8651621.
